# Test results published in patent US7022297B2, “Method and system for purifying or cleansing a gas stream or gaseous body” (priority 2001, dated 2006).
# Columns and labels:
# [1] = Inorganic contaminants elimination from air in prototype scrubber with biocide spray; conditions: per 24 hour period
# [2] = Organic contaminants elimination from air in prototype scrubber with biocide spray; conditions: per 5 hour cycle
SMILES,Oxygen increase [1] [% increase],PERCENTAGE ELIMINATION [2] [%],POST-TEST [2] [ppm],REDUCTION [2] [ppm]
"O=O [Oxygen (O2), Oxygen]",0.5,–,–,–
CCCCCC [Hexane],–,38.3,1125,−700.6
CC(C)=O [Acetone],–,98.75,366,−2904.6
